Hit rate of the full screen: of about 350,000 compounds, about 220 (0.063%) were called active. This list was built around the results that the source calls inconclusive (neither active nor inactive); the mix of calls is not that of the screen. Calls follow the shape of the dose curve; as a rule, active = well fitted activation curve with a large enough effect; inconclusive = small, poorly fitted or top-dose-only effect; inactive = no such curve, though single readings can be large or run the other way. Where the call is inconclusive, the potency comes from a doubtful curve fit.
Experiment: qHTS for Activators of Integrin-Mediated Alleviation for Muscular Dystrophy; also: nearly all actives have a fitted effect of over 60% in size;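 as to activation: 100% = response of the positive control SU9516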
Conditions: alpha7betagal myoblasts, beta-gal FDG fluorescence, 48 h; activation: at 38.3 µM (top of the series)
Procedure, shortened: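 alpha7betagal+/- myoblasts (passage 13, 250/well) treated 48 h at 37C with compounds at 1:260 dilution of DMSO stock. Lysed, then beta-galactosidase activity read as FDG fluorescence (ex 480/em 540) after 30 min, with pre-read for autofluorescence.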
Potency is read from the fitted curve at half-maximal effect.

| Structure (SMILES) | Potency | activation |
| --- | --- | --- |
| COc1ccc(CCNC(=O)Cn2nnc(C(=O)Nc3ccc(Br)cc3)c2N)cc1OC | active: 11.2 µM |  |
| CN(C)/C=C/C(=O)c1cccc(C(F)(F)F)c1 | inconclusive: 10 µM [activator, single point] |  |
| O=c1c([N+](=O)[O-])c(NCCN2CCCCCC2)c2ccccc2n1-c1ccccc1 | inconclusive: 1.12 µM [activator, partial curve, poor fit] |  |
| CC(C)(C)Nc1nc(C(N)=O)nc(N2CCOCC2)n1 | inconclusive: 2.82 µM [activator, partial curve, poor fit] |  |
| Cc1ccccc1NS(=O)(=O)c1ccc2c(c1)NC(=O)CCS2 | inconclusive: 5.01 µM [activator, single point] |  |
| O=C(CN1CCC(NC(=O)c2ccccc2F)CC1)Nc1ccc2c(c1)OCO2 | inconclusive: 5.01 µM [activator, single point] |  |
| O=C(CCn1ccc2cc(S(=O)(=O)N3CCCC3)ccc21)NCc1ccccc1 | inconclusive: 35.5 µM [activator, partial curve, poor fit] |  |
| O=C(O)CCSC(=S)N1CCOCC1 | inconclusive: 10 µM [activator, single point] |  |
| COc1ccc(C(=O)CC(=O)C(=O)Nc2cccc([N+](=O)[O-])c2C)cc1 |  | inactive: -16.1% |
| Cc1ccc(S(=O)(=O)NCC2CCC(C(=O)NCc3cccs3)CC2)cc1 (configuration not stated) | inconclusive: 3.55 µM [activator, partial curve, poor fit] |  |
| CCOC(=O)C1=C(N)Oc2ccc3ccccc3c2C1c1cccnc1 (configuration not stated) |  | inactive: -27.8% |
| COc1cc(C(=O)OCc2cc(=O)oc3c(C)c(C)ccc23)ccc1OC(F)F | inconclusive: 12.6 µM [activator, single point] |  |
| Cc1onc(-c2ccccc2)c1C(=O)N/N=C/c1ccc(O)c([N+](=O)[O-])c1 | inconclusive: 10 µM [activator, partial curve, poor fit] |  |
| NS(=O)(=O)c1ccc(NC(=S)Nc2ccc(S(=O)(=O)N3CCCC3)cc2)cc1 | inconclusive: 2.82 µM [activator, single point] |  |
| CCN1C(=O)[C@H]2[C@@H](c3ccc(-c4cccc(Cl)c4)c(OC)c3)N3CCC[C@@]3(C(=O)OC)[C@H]2C1=O | inconclusive: 1.78 µM [activator, partial curve, poor fit] |  |
| CCCCCC1C(=O)N2C=C(c3ccccc3)c3ccccc3N2C1=O (configuration not stated) | inconclusive: 5.01 µM [activator, single point] |  |
| CC1CN(CCCOc2ccccc2[N+](=O)[O-])CC(C)O1 (configuration not stated) |  | inactive: -15.8% |
| COc1cccc(-c2nn(-c3ccccc3)cc2CN(C)C(C)c2ccncn2)c1 (configuration not stated) |  | inactive: 1.98% |
| Cn1nc(-c2ccc(N3CCCCC3)c(NC(=O)c3ccco3)c2)c2ccccc2c1=O | inconclusive: 1.12 µM [activator, partial curve, poor fit] |  |
| COc1ccc(N2C(=O)CC(N3CCN(c4ccc(Cl)cc4)CC3)C2=O)cc1 (configuration not stated) |  | inactive: 4.88% |
| O=C(COc1ccc2c3c(c(=O)oc2c1)CCC3)Nc1ccccn1 | inconclusive: 5.01 µM [activator, single point] |  |

An excerpt of these results, with tabs:
Structure (SMILES)	Potency	activation
NS(=O)(=O)c1ccc(NC(=S)Nc2ccc(S(=O)(=O)N3CCCC3)cc2)cc1	inconclusive: 2.82 µM [activator, single point]	
CCN1C(=O)[C@H]2[C@@H](c3ccc(-c4cccc(Cl)c4)c(OC)c3)N3CCC[C@@]3(C(=O)OC)[C@H]2C1=O	inconclusive: 1.78 µM [activator, partial curve, poor fit]	
CCCCCC1C(=O)N2C=C(c3ccccc3)c3ccccc3N2C1=O (configuration not stated)	inconclusive: 5.01 µM [activator, single point]	
CC1CN(CCCOc2ccccc2[N+](=O)[O-])CC(C)O1 (configuration not stated)		inactive: -15.8%
COc1cccc(-c2nn(-c3ccccc3)cc2CN(C)C(C)c2ccncn2)c1 (configuration not stated)		inactive: 1.98%
Cn1nc(-c2ccc(N3CCCCC3)c(NC(=O)c3ccco3)c2)c2ccccc2c1=O	inconclusive: 1.12 µM [activator, partial curve, poor fit]	
COc1ccc(N2C(=O)CC(N3CCN(c4ccc(Cl)cc4)CC3)C2=O)cc1 (configuration not stated)		inactive: 4.88%
O=C(COc1ccc2c3c(c(=O)oc2c1)CCC3)Nc1ccccn1	inconclusive: 5.01 µM [activator, single point]	

Additional structures follow.

| Structure (SMILES) | Potency | activation |
| --- | --- | --- |
| CC(=O)N/C(=N/c1nc(C)cc(C)n1)Nc1ccc(C)cc1C | inconclusive: 28.2 µM [activator, partial curve, poor fit] |  |
| COc1ccc(C(=O)OCC(=O)NC2CCCCCC2)cc1OC | inconclusive: 2.82 µM [activator, single point] |  |
| S=C(NCc1ccccc1)N1CCc2ccccc2C1 | inconclusive: 3.55 µM [activator, single point] |  |
| COc1ccc(C2C3=C(COC3=O)Oc3cc4c(cc32)OCO4)cc1OC (configuration not stated) |  | inactive: -5.5% |
| COc1cc(C(=O)Nc2ccc(C(=O)NCC3CCCO3)cc2)cc(OC)c1OC (configuration not stated) | inconclusive: 5.01 µM [activator, single point] |  |
| O=C(NC(=S)Nc1ccc(Br)cn1)c1cccs1 | inconclusive: 5.01 µM [activator, single point] |  |
| O=C(c1cc(-c2cccs2)nn1-c1ccccc1)N1CCN(S(=O)(=O)c2ccccc2)CC1 | inconclusive: 5.01 µM [activator, single point] |  |
| COc1ccccc1N(CC(=O)NC1CCCC1)C(=O)C1(C)CC(=O)N=C2C=CC(C)=CN21 (configuration not stated) | inconclusive: 3.16 µM [activator, full curve, poor fit] |  |
| Cn1c(CN2CCOCC2)nnc1SCC(=O)Nc1nccs1 | inconclusive: 5.01 µM [activator, single point] |  |
| COC(=O)c1cc(S(=O)(=O)NCC(C)c2ccccc2)cn1C (configuration not stated) | inconclusive: 5.01 µM [activator, single point] |  |
| N#C/C(=C\N1CCCCC1)S(=O)(=O)c1ccc(Cl)cc1 | inconclusive: 12.6 µM [activator, single point] |  |
| CN(C)S(=O)(=O)c1cccc(NC(=O)COC(=O)COc2ccc(Br)cc2)c1 | inconclusive: 2.82 µM [activator, single point] |  |
| CCCCC(=O)N1CCCC(c2nc(-c3cccc(OC)c3)no2)C1 (configuration not stated) | inconclusive: 17.8 µM [activator, single point] |  |
| CCOc1cc(/C=C/c2ccc3cccc([N+](=O)[O-])c3n2)ccc1O |  | inactive: -44.4% |
| CN(C)c1ccc(C(C(=O)NCC2CCCO2)N(Cc2ccccc2)C(=O)c2snc(C(N)=O)c2N)cc1 (configuration not stated) | inconclusive: 15.8 µM [activator, single point] |  |
| C=CCNC(=O)c1ccccc1CCc1ccccc1 | inconclusive: 0.501 µM [activator, partial curve, poor fit] |  |
| O=C(Nc1ccccc1)c1cc2ccccc2c(=O)s1 |  | inactive: 33.8% |
| COc1cc(C(=O)OCC(=O)NC2CCCC2)cc(OC)c1OC | inconclusive: 5.01 µM [activator, single point] |  |
| Cc1ccc(CSC(Nc2ccc(F)cc2)=C(C#N)C#N)cc1 |  | inactive: -51.8% |
| C/C(Cn1nnc([N+](=O)[O-])n1)=N\NC(=O)c1ccccc1 |  | inconclusive: 8.58% [activator] |
| O=C1c2cccc3c([N+](=O)[O-])ccc(c23)C(=O)N1c1ccccn1 |  | inactive: -2.92% |
